Laboratory results published in PubChem BioAssay AID2685 (National Center for Advancing Translational Sciences (NCATS), 2010).
The other results are listed elsewhere or left out. These are further read-outs of the screen, such as a control signal, another cell line or another target. No call is given for them. Compounds called inactive in the main read-out are mostly missing here. Potencies come from curve fits of mixed quality, noted in brackets.

Assay: qHTS Assay for Lipid Storage Modulators in Drosophila S3 Cells;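 on cell number change: cells counted by Cell Tracker Red CMTPX staining in the red channel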
Conditions: BODIPY lipid droplet fluorescence, 18-24 h; for cell number change: measured here: cell count max response, cells fed with added oleic acid
Outline: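 Laser-scanning cytometry quantifies lipid droplet accumulation (500–530 nm total intensity; droplet/cell object ratio) in oleic acid-fed (400 uM added) Drosophila S3 cells treated with a concentration series. 20 uM Triacsin C defined 100% inhibition.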

[1] = measured here: lipid fluorescence (Fed channel) AC50, cells fed with added oleic acid
[2] = measured here: cell number channel AC50, cells fed with added oleic acid

Structure (SMILES) | cell number change [%] | AC50 [1] | AC50 [2]
CCN(CC)S(=O)(=O)c1ccc(Oc2ccccc2)c(N)c1 | 34.8 | – | –
COc1ccccc1-c1cc(C(=O)N2CCN(S(=O)(=O)c3ccc(C)cc3)CC2)[nH]n1 | -18.4 | – | –
COc1ccc(OC)c(CN2CCC(Cc3ccccc3)CC2)c1 | -15 | 29.1 µM [falling, single point] | –
CC1(C)CC(NC(=O)Cc2ccccc2[N+](=O)[O-])CC(C)(C)N1 | -8.24 | 29.1 µM [falling, single point] | –
Cn1c2c(c(=O)n(C)c1=O)CN(CCN1CCNCC1)CN2 | -31.1 | 4.11 µM [falling, single point] | –
N#CCCN(Cc1cccnc1)C(=O)c1ccc(S(=O)(=O)N2CCOCC2)cc1 | 8.44 | 32.6 µM [rising, single point] | –
CC(C)CNC(=O)CN1c2cccc3cccc(c23)S1(=O)=O | 16.2 | 25.9 µM [rising, single point] | –
CCOCCCNC(=O)c1c(N)n(-c2ccc3c(c2)OCO3)c2nc3ccccc3nc12 | 15.5 | – | 3.26 µM [rising, partial curve, poor fit]
Cc1cc(C)nc(N(C#N)Cc2ccc(Br)cc2)n1 | -41.4 | – | 18.4 µM [falling, single point]
CN(c1cccc(NC(=O)c2ccc(N(C)S(=O)(=O)c3ccccc3)cc2)c1)S(C)(=O)=O | -22.2 | – | –
O=C1C2CCCN2C(=O)N1CCCCN1CCN(c2cccc(C(F)(F)F)c2)CC1 (stereo not given) | 16.8 | 0.58 µM [falling, single point] | –
COc1cc(C(=O)Nc2ccc(Nc3ccccc3)cc2)cc(OC)c1OC | -49.7 | – | 18.4 µM [falling, single point]
Cc1ccccc1NC(=O)c1ccc(CN(c2ccccc2)S(=O)(=O)c2ccccc2)cc1 | 9.28 | – | –
Cc1cc(C)cc(N(CC(=O)NC2CCCC2)C(=O)CCC(=O)Nc2cc(C)on2)c1 | 5.46 | 29.1 µM [rising, single point] | –
Clc1ccc(Oc2cnns2)cc1Cl | 41.1 | – | 23.1 µM [rising, single point]
Cc1onc(-c2ccccc2Cl)c1C(=O)Nc1cccc2cccnc12 | -10.4 | – | –
Cc1cnc(CNC(=O)c2ccc3oc(C(C)C)nc3c2)[nH]1 | -4.25 | – | 0.00461 µM [falling, full curve, poor fit]
COc1ccccc1CN(C)CC(=O)NC(=O)NC1CCCCC1 | -18.8 | 3.26 µM [rising, full curve, poor fit] | –
Cc1ccc(NCC(=O)N2CCN(S(=O)(=O)c3ccccc3)CC2)cc1F | – | 0.58 µM [falling, single point] | –
Cc1ccc(O)c(NC(=S)NC(=O)Cc2ccc(Cl)cc2)c1 | -8.39 | – | –
COc1ccc(CN(Cc2cc3cc4c(cc3[nH]c2=O)OCO4)C(=O)NC2CCCCC2)cc1 | 41.4 | 0.326 µM [rising, full curve] | 0.184 µM [rising, full curve, poor fit]

Structure (SMILES) | cell number change [%] | AC50 [1] | AC50 [2]
Cc1ccc(NC(=O)CCSc2ccccc2)c(C)c1 | -46.2 | 7.31 µM [falling, partial curve] | 6.51 µM [falling, full curve]
COc1ccccc1NC(=O)Nc1cccc(C)n1 | 29.8 | 29.1 µM [rising, single point] | –
CCOC(=O)C1CCCN(C(=S)Nc2ccc(OC)cc2)C1 (stereo not given) | 16.8 | – | –
O=C(CCNC(=O)N1CCn2c1nc1ccccc12)NCc1ccc(F)cc1 | -5.81 | 23.1 µM [falling, single point] | –
Cc1cc(C(=O)NCc2ccc(F)cc2)n(-c2ccccc2)n1 | 25.6 | 2.06 µM [rising, full curve] | 0.058 µM [rising, full curve, poor fit]
CCn1nnc(NC(=O)c2ccccc2Br)n1 | 9.4 | – | –
Brc1ccc(-c2noc(CCc3ccccc3)n2)o1 | -20 | – | 0.0731 µM [falling, partial curve, poor fit]
COc1ccc(/C=N/NC(=O)c2cccc(OC(F)(F)C(F)F)c2)cc1O | 37.3 | 13 µM [rising, partial curve] | 10.3 µM [rising, partial curve]
Cc1ccc(S(=O)(=O)N/N=C\c2cn(CC(N)=O)c3ccccc23)cc1C | -19.8 | 6.51 µM [rising, single point] | –
CC(C)Cc1cc(CNC(=O)C2CCC(=O)N(CCc3cccc(F)c3)C2)on1 (stereo not given) | -4.89 | 0.146 µM [rising, full curve, poor fit] | –
CCOC(=O)C(NC(=O)CCl)(Nc1sc(C)c(CC)c1C#N)C(F)(F)F (stereo not given) | -33.1 | – | 8.2 µM [falling, partial curve]
O=C1c2ccccc2C(=O)N1CCC#Cc1ccc2cc(C3(O)CCCCC3)oc(=O)c2c1 | -40.9 | 29.1 µM [rising, single point] | 4.11 µM [falling, single point]
CCN(CC)C(=O)n1c(Cc2ccccc2)nc2ccccc21 | -4.39 | 1.64 µM [falling, partial curve] | –
CC1CCC(NCC(=O)Nc2cccc(S(N)(=O)=O)c2)CC1 (stereo not given) | 20.2 | – | –
COc1ccc(S(=O)(=O)N(C)c2ccc(C(=O)NCc3ccccn3)cc2)cc1 | 15.1 | 0.411 µM [rising, single point] | –
COc1cc(NC(=O)c2ccc(COCC(F)(F)F)cc2)cc(OC)c1OC | 18.4 | 23.1 µM [falling, partial curve] | –
Cc1ccc(S(=O)(=O)N(C)CC(=O)Nc2nnc(CC(C)C)s2)cc1 | – | 0.58 µM [rising, full curve, poor fit] | –
COc1ccccc1Nc1nc(N)nc(CN2CCCCCC2)n1 | – | 6.51 µM [falling, single point] | –
COc1ccc(N2CCN(C(=O)C3CCN(S(=O)(=O)c4cccs4)CC3)CC2)cc1 | 40.1 | – | 0.0082 µM [rising, full curve, poor fit]
COc1ccc(S(=O)(=O)NCc2ccccn2)cc1NC(=O)c1ccc(Cl)cc1 | 75.1 | – | 20.6 µM [rising, partial curve]

Of the compounds above, 13 contain an aryl methoxy group.
Structure (SMILES) | cell number change [%] | AC50 [1] | AC50 [2]
COc1ccccc1-c1cc(C(=O)N2CCN(S(=O)(=O)c3ccc(C)cc3)CC2)[nH]n1 | -18.4 | – | –
COc1ccc(OC)c(CN2CCC(Cc3ccccc3)CC2)c1 | -15 | 29.1 µM [falling, single point] | –
COc1cc(C(=O)Nc2ccc(Nc3ccccc3)cc2)cc(OC)c1OC | -49.7 | – | 18.4 µM [falling, single point]
COc1ccccc1CN(C)CC(=O)NC(=O)NC1CCCCC1 | -18.8 | 3.26 µM [rising, full curve, poor fit] | –
COc1ccc(CN(Cc2cc3cc4c(cc3[nH]c2=O)OCO4)C(=O)NC2CCCCC2)cc1 | 41.4 | 0.326 µM [rising, full curve] | 0.184 µM [rising, full curve, poor fit]
COc1ccccc1NC(=O)Nc1cccc(C)n1 | 29.8 | 29.1 µM [rising, single point] | –
CCOC(=O)C1CCCN(C(=S)Nc2ccc(OC)cc2)C1 (stereo not given) | 16.8 | – | –
COc1ccc(/C=N/NC(=O)c2cccc(OC(F)(F)C(F)F)c2)cc1O | 37.3 | 13 µM [rising, partial curve] | 10.3 µM [rising, partial curve]
COc1ccc(S(=O)(=O)N(C)c2ccc(C(=O)NCc3ccccn3)cc2)cc1 | 15.1 | 0.411 µM [rising, single point] | –
COc1cc(NC(=O)c2ccc(COCC(F)(F)F)cc2)cc(OC)c1OC | 18.4 | 23.1 µM [falling, partial curve] | –
COc1ccccc1Nc1nc(N)nc(CN2CCCCCC2)n1 | – | 6.51 µM [falling, single point] | –
COc1ccc(N2CCN(C(=O)C3CCN(S(=O)(=O)c4cccs4)CC3)CC2)cc1 | 40.1 | – | 0.0082 µM [rising, full curve, poor fit]
COc1ccc(S(=O)(=O)NCc2ccccn2)cc1NC(=O)c1ccc(Cl)cc1 | 75.1 | – | 20.6 µM [rising, partial curve]
